# In the supplement of paper PMC5949888:
# Most values lie at the floor of the assay. Slopes are relative: functional sequences can read slightly below zero.
# System: Saccharomyces cerevisiae PS128 hsf1 delta, HSF1(1-493) fusion
# Assay: growth estimate (transactivation domain function in HSF1 fusion, heat-shock survival) (a.u. (slope of normalised read count over time)); higher = stronger growth at 37°C, i.e. more transactivation activity
# Settings: library: random library
# Experimental: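 Random 60-nt DNA library encoding peptides of up to 20 aa, fused to the C-terminus of yeast HSF1 residues 1-493 (C-terminal TAD deleted) and expressed from the native HSF1 promoter on a CEN plasmid in hsf1-deleted S. cerevisiae PS128. Cells were selected at 37°C on -trp 5-FOA plates for 0, 2, 4, 6 and 8 days and amplicons were sequenced. Growth estimate is the slope of a robust linear fit of total-sum-normalised read counts (normalised to the first time point) over time, using at least 2 replicates. Sequences are classed functional (TAD activity) above a threshold of -0.13, set from stop-codon control sequences.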
row,Substance,growth estimate
1,DGPETEVFSLHEGL,< -0.25
2,DGPLFLFHGNQVVLWCIRAR,< -0.25
3,DGRALSTVFRYDVYVSIRRR,< -0.25
4,DGRDSVARKASRMDGLLLHR,< -0.25
5,DGRKNWFIGSSCSRAGGPHG,< -0.25
6,DGRVGDAVKPRDDEVRRPMG,< -0.25
7,DGSFGEERAYNLRWGLRLVP,< -0.25
8,DGSRRSRRVGSVC,< -0.25
9,DGTCLGAGRR,< -0.25
10,DGTGWSVTFI,< -0.25
11,DGVCMVGFGRQYGARRDVSG,< -0.25
12,DGVSTWYG,< -0.25
13,DGYLSRRPNVSMVTFNLWIH,< -0.25
14,DHEGFRSARVHV,< -0.25
15,DHFRHGKSWWTVNWSECVCS,< -0.25
16,DHGEHINES,< -0.25
17,DHKWRTSLQEDASLHRSGSA,< -0.25
18,DHLFCEIRS,< -0.25
19,DHQQHTQITDGICSCDKGRA,< -0.25
20,DHVAQGYVSACFN,< -0.25
21,DIATALIGGMMRLSCHVSVN,< -0.25
22,DIGANTTTEEICTG,< -0.25
23,DIGVSTKPC,< -0.25
24,DIHSGWGVVRLTHSWLGGLR,< -0.25

row,Substance,growth estimate
1,DINND,-0.167
2,DIQRGSQNCRGRGQTRSVKR,< -0.25
3,DIR,< -0.25
4,DIRPAGSHRSKSSRGASPLY,< -0.25
5,DIRSS,< -0.25
6,DIRVPSVSLQSPNSMAWPLI,-0.0419
7,DISHILFAAGSIYRRTTPGS,< -0.25
8,DITAGELRIECASPRPAFSS,< -0.25
9,DIVFATPRGKVALNTGVTVL,< -0.25
10,DIVRGNFGGLTQRRVGLCTR,< -0.25
11,DIVTHLF,< -0.25
12,DIYWQNAKT,< -0.25
13,DKAGAGLLALATNSLRQLHG,< -0.25
14,DKCHLPCPGRNQVPLATLCS,< -0.25
15,DKFILFG,< -0.25
16,DKFRRQVRCADRESGLSRQR,< -0.25
17,DKGGLLPCYG,< -0.25
18,DKGHRKRNGAEQMPNYDHR,< -0.25
19,DKGN,0.0801
20,DKGTVLSRVNGSLTDYNKTV,< -0.25
21,DKHPPSVLTPSVCPRGVLHA,-0.245
22,DKIS,< -0.25
23,DKLLSGSGIQGPVLPG,< -0.25
24,DKLPRFA,-0.231

# At a glance, part of the list above:
row,Substance,growth estimate
18,DHLFCEIRS,< -0.25
19,DHQQHTQITDGICSCDKGRA,< -0.25
20,DHVAQGYVSACFN,< -0.25
21,DIATALIGGMMRLSCHVSVN,< -0.25
22,DIGANTTTEEICTG,< -0.25
23,DIGVSTKPC,< -0.25
24,DIHSGWGVVRLTHSWLGGLR,< -0.25
1,DINND,-0.167
2,DIQRGSQNCRGRGQTRSVKR,< -0.25
3,DIR,< -0.25
4,DIRPAGSHRSKSSRGASPLY,< -0.25
5,DIRSS,< -0.25
6,DIRVPSVSLQSPNSMAWPLI,-0.0419
7,DISHILFAAGSIYRRTTPGS,< -0.25
8,DITAGELRIECASPRPAFSS,< -0.25
9,DIVFATPRGKVALNTGVTVL,< -0.25
10,DIVRGNFGGLTQRRVGLCTR,< -0.25
11,DIVTHLF,< -0.25
12,DIYWQNAKT,< -0.25
13,DKAGAGLLALATNSLRQLHG,< -0.25
14,DKCHLPCPGRNQVPLATLCS,< -0.25
15,DKFILFG,< -0.25
16,DKFRRQVRCADRESGLSRQR,< -0.25
17,DKGGLLPCYG,< -0.25
18,DKGHRKRNGAEQMPNYDHR,< -0.25
19,DKGN,0.0801
20,DKGTVLSRVNGSLTDYNKTV,< -0.25
21,DKHPPSVLTPSVCPRGVLHA,-0.245

# Following part.

row,Substance,growth estimate
1,DKLQRDYAGEGYGVGIALIG,< -0.25
2,DKQ,< -0.25
3,DKQKPGETYMRGVTGGAIER,< -0.25
4,DKRCSGRTLVSVIPGKRGPV,< -0.25
5,DKRLRIRECETLRGFSNEFP,< -0.25
6,DKTIAY,< -0.25
7,DKVRQPGT,< -0.25
8,DKYRRYYRWCWKEGVTSSKL,< -0.25
9,DLAARTLPLRLM,< -0.25
10,DLAGSGVDRLAGINLYPVVY,< -0.25
11,DLALRGGGP,< -0.25
12,DLARSGEVS,< -0.25
13,DLCA,< -0.25
14,DLDLGRHRIENIRSACFLWP,< -0.25
15,DLF,< -0.25
16,DLFDKMLDELGSYPS,-0.13
17,DLFNSARLSPG,< -0.25
18,DLFSLHFRT,< -0.25
19,DLFTIDT,< -0.25
20,DLGYS,< -0.25
21,DLICYKIDQLVLVARLNTFG,< -0.25
22,DLKFMTSRATHRLGACNVRW,< -0.25
23,DLLIVSCSNRVFPV,< -0.25
24,DLMQGLPFMNRRAKIVRGNG,< -0.25

row,Substance,growth estimate
1,DLNVTRES,< -0.25
2,DLPILCLFVRS,< -0.25
3,DLPQPKP,< -0.25
4,DLQGYLGRYATRVNPNGALS,-0.243
5,DLRGSMLRVI,< -0.25
6,DLRN,< -0.25
7,DLRRRPATKNSAS,< -0.25
8,DLSHADSTGVRRCRRRRHMS,< -0.25
9,DLSKPEKSS,< -0.25
10,DLSLTYR,< -0.25
11,DLSPTITRCMPGQINTPYLA,< -0.25
12,DLSRGRASGGAL,< -0.25
13,DLSTRRVGSALSHGVMPKQP,< -0.25
14,DLTGGRRQSANRDYRN,< -0.25
15,DLVGTAYRGDRWLLNIEAKS,< -0.25
16,DLYSVGGKLVSSRFPFAKPV,< -0.25
17,DMCEEATLLGRG,< -0.25
18,DMGPM,< -0.25
19,DMLCTECQDKGAGQLFWSAL,< -0.25
20,DMPPCVGKHCPQDAVGTSTR,< -0.25
21,DMSSLFTGVQLSLLSSGFYA,< -0.25
22,DMTSDPTALPTT,< -0.25
23,DNIV,< -0.25
